# The list does not hold the whole screen: it is rich in T/C values a quarter to a half above the control, in often repeated tests (any T/C) and in doses without a T/C. Other doses and runs of a compound stand elsewhere. T/C gives the treated animals as a percentage of the vehicle group. Some entries give survivors of the animals treated and no T/C: the source files T/C as zero there, which appears to mark a toxic dose or a test without result, not a measured value. Some doses without a T/C left all or most animals alive at the check, yet need not have been tolerated: survival well below the control is almost never listed, so the zero probably covers shortened survival too. Survivors were counted at the toxicity check, usually on the fifth day, unless a day is given; later deaths do not show. Schedule codes are those of the source, taken here to give the interval after Q, in days (D) or hours (H), and the number of doses after X. For survival time, this PubChem deposit counts one and a half times the control or more as active, and values a quarter to a half above the control carry no call in these data; other NCI protocols may use other cut-offs. Some T/C values are followed by the survivors on the day toxicity was checked, most often the fifth; without a count, all were alive then. Some entries were tested several times; the values are given in rising order. Counts like (3×) say how often a value occurs here.
# Test system: CD2F1 mice, L1210 leukemia ip, survival T/C
# Test: NCI In Vivo Anticancer Drug Screen. Data for tumor model L1210 Leukemia (intraperitoneal) in CD2F1 (CDF1) mice
# Details: higher T/C = longer survival
# Summary of the method: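 Implant tumor; dose compound or vehicle; measure endpoint in both groups; report treated divided by control.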
smiles,measurement,setting,value
O=NN(CCCl)C(=O)NCCCl,T/C,"T/C endpoint: mean survival time, dose: 37.5 mg/kg/injection, schedule: Q01DX001 (ip), vehicle: saline + alcohol","369, 383, 437, 479 % of control"
same,T/C,"T/C endpoint: mean survival time, dose: 40.0 mg/kg/injection, schedule: Q01DX001 (ip), vehicle: saline + alcohol, evaluated on day 5",143 % of control
same,T/C,"T/C endpoint: mean survival time, dose: 40.0 mg/kg/injection, schedule: Q01DX001 (ip), vehicle: saline + alcohol, evaluated on day 6",203 % of control
same,T/C,"T/C endpoint: mean survival time, dose: 40.0 mg/kg/injection, schedule: Q01DX001 (ip), vehicle: saline + alcohol, evaluated on day 8",193 % of control
same,T/C,"T/C endpoint: mean survival time, dose: 40.0 mg/kg/injection, schedule: Q01DX001 (ip), vehicle: saline + alcohol, evaluated on day 30",352 % of control
same,T/C,"T/C endpoint: mean survival time, dose: 40.0 mg/kg/injection, schedule: Q01DX001 (ip), vehicle: saline + alcohol, evaluated on day 45",400 and 456 % of control
same,T/C,"T/C endpoint: mean survival time, dose: 40.0 mg/kg/injection, schedule: Q01DX001 (ip), vehicle: saline + alcohol, evaluated on day 60",344 and 857 % of control
same,T/C,"T/C endpoint: mean survival time, dose: 40.0 mg/kg/injection, schedule: Q01DX001 (ip), vehicle: saline, evaluated on day 5","305, 310, 343 % of control"
same,T/C,"T/C endpoint: mean survival time, dose: 40.0 mg/kg/injection, schedule: Q01DX001 (ip), vehicle: saline, evaluated on day 30","218 [5 of 6 alive], 296, 301 % of control"
same,T/C,"T/C endpoint: mean survival time, dose: 40.0 mg/kg/injection, schedule: Q01DX001 (ip), vehicle: saline, evaluated on day 60",340 % of control
same,T/C,"T/C endpoint: mean survival time, dose: 48.0 mg/kg/injection, schedule: Q01DX001 (ip), vehicle: saline + alcohol, evaluated on day 5","121, 305, 309, 479 % of control"
same,T/C,"T/C endpoint: mean survival time, dose: 48.0 mg/kg/injection, schedule: Q01DX001 (ip), vehicle: saline + alcohol, evaluated on day 6",206 % of control
same,T/C,"T/C endpoint: mean survival time, dose: 60.0 mg/kg/injection, schedule: Q01DX001 (ip), vehicle: Klucel (hydroxypropylcellulose) (HPC)",146 % of control
same,T/C,"T/C endpoint: mean survival time, dose: 60.0 mg/kg/injection, schedule: Q01DX001 (ip), vehicle: saline + alcohol, evaluated on day 30",121 and 240 % of control
same,T/C,"T/C endpoint: mean survival time, dose: 60.0 mg/kg/injection, schedule: Q01DX001 (ip), vehicle: saline + alcohol, evaluated on day 40",145 and 408 % of control
same,T/C,"T/C endpoint: mean survival time, dose: 64.0 mg/kg/injection, schedule: Q01DX001 (ip), vehicle: saline + alcohol, evaluated on day 5",236 % of control
same,T/C,"T/C endpoint: mean survival time, dose: 64.0 mg/kg/injection, schedule: Q01DX001 (ip), vehicle: saline + alcohol, evaluated on day 30",250 and 279 % of control
same,T/C,"T/C endpoint: mean survival time, dose: 64.0 mg/kg/injection, schedule: Q01DX001 (ip), vehicle: saline + alcohol, evaluated on day 45",222 % of control [5 of 6 alive]
same,survivor count,"T/C endpoint: mean survival time, dose: 120.0 mg/kg/injection, schedule: Q01DX001 (ip), vehicle: saline + alcohol",2 of 6
same,survivor count,"T/C endpoint: mean survival time, dose: 128.0 mg/kg/injection, schedule: Q01DX001 (ip), vehicle: saline + alcohol",4 of 6
same,T/C,"T/C endpoint: median survival time, dose: 0.88 mg/kg/injection, schedule: Q01DX009 (ip), vehicle: saline + alcohol",125 % of control
same,T/C,"T/C endpoint: median survival time, dose: 1.5 mg/kg/injection, schedule: Q01DX009 (ip), vehicle: saline + alcohol",148 % of control
same,T/C,"T/C endpoint: median survival time, dose: 1.8 mg/kg/injection, schedule: Q01DX009 (ip), vehicle: saline + alcohol",128 % of control
same,T/C,"T/C endpoint: median survival time, dose: 5.0 mg/kg/injection, schedule: Q01DX001 (ip), vehicle: Klucel (hydroxypropylcellulose) (HPC)",138 % of control
same,T/C,"T/C endpoint: median survival time, dose: 7.5 mg/kg/injection, schedule: Q01DX005 (ip), vehicle: saline + alcohol, evaluated on day 30","231, 237, 246, 370 % of control (2×)"
same,T/C,"T/C endpoint: median survival time, dose: 7.5 mg/kg/injection, schedule: Q01DX005 (ip), vehicle: saline + alcohol, evaluated on day 35",207 % of control
same,T/C,"T/C endpoint: median survival time, dose: 7.5 mg/kg/injection, schedule: Q01DX005 (ip), vehicle: saline + alcohol, evaluated on day 60",204 and 226 % of control
same,T/C,"T/C endpoint: median survival time, dose: 7.5 mg/kg/injection, schedule: Q01DX009 (ip), vehicle: saline + alcohol, evaluated on day 30","250, 268, 275, 370, 375 % of control"
same,T/C,"T/C endpoint: median survival time, dose: 7.5 mg/kg/injection, schedule: Q01DX009 (ip), vehicle: saline + alcohol, evaluated on day 35",262 % of control
same,T/C,"T/C endpoint: median survival time, dose: 7.5 mg/kg/injection, schedule: Q01DX009 (ip), vehicle: saline + alcohol, evaluated on day 60",292 and 361 % of control
same,T/C,"T/C endpoint: median survival time, dose: 10.0 mg/kg/injection, schedule: Q01DX001 (ip), vehicle: saline",142 % of control
same,T/C,"T/C endpoint: median survival time, dose: 10.0 mg/kg/injection, schedule: Q01DX005 (ip), vehicle: saline + alcohol","178, 197, 215, 228, 250, 255, 283, 287, 312, 322, 333 (2×), 337, 340, 352, 357, 361 (2×), 370 % of control (3×)"
same,T/C,"T/C endpoint: median survival time, dose: 10.0 mg/kg/injection, schedule: Q01DX009 (ip), vehicle: saline + alcohol","87, 171, 190, 235, 237, 238, 247, 322, 333, 340, 348, 357, 361 (2×), 361 [5 of 6 alive], 370 (5×), 375 % of control"
same,T/C,"T/C endpoint: median survival time, dose: 15.0 mg/kg/injection, schedule: Q01DX005 (ip), vehicle: saline + alcohol, evaluated on day 30","121, 151, 225, 312, 322, 333 (2×), 337, 340, 348, 352, 357, 361 (3×), 365, 370 (7×), 375 % of control (3×)"

# Reference: PubChem BioAssay AID256 (DTP/NCI, 2004)
